No constants are given. Whether binding was seen depends on the method and setting. Binding seen in cells or lysates may run through a third protein. Some entries that bind do so weakly or less than the wild type.
Target: G9a (mouse (endogenous in mESCs)) (UniProt Q9Z148)
Test: co-IP; 200 μg nuclear extract diluted to approximately 170 mM KCl; IP overnight at 4°C with mouse monoclonal anti-KAP1, anti-G9a or mouse IgG; protein G-Dynabeads; washes in 20 mM HEPES pH 7.9, 200 mM KCl, 1% NP-40, 10% glycerol; Western blot

By UniProt entry, the sequences of proteins in these tests, tags left out.
UniProt Q9Z148: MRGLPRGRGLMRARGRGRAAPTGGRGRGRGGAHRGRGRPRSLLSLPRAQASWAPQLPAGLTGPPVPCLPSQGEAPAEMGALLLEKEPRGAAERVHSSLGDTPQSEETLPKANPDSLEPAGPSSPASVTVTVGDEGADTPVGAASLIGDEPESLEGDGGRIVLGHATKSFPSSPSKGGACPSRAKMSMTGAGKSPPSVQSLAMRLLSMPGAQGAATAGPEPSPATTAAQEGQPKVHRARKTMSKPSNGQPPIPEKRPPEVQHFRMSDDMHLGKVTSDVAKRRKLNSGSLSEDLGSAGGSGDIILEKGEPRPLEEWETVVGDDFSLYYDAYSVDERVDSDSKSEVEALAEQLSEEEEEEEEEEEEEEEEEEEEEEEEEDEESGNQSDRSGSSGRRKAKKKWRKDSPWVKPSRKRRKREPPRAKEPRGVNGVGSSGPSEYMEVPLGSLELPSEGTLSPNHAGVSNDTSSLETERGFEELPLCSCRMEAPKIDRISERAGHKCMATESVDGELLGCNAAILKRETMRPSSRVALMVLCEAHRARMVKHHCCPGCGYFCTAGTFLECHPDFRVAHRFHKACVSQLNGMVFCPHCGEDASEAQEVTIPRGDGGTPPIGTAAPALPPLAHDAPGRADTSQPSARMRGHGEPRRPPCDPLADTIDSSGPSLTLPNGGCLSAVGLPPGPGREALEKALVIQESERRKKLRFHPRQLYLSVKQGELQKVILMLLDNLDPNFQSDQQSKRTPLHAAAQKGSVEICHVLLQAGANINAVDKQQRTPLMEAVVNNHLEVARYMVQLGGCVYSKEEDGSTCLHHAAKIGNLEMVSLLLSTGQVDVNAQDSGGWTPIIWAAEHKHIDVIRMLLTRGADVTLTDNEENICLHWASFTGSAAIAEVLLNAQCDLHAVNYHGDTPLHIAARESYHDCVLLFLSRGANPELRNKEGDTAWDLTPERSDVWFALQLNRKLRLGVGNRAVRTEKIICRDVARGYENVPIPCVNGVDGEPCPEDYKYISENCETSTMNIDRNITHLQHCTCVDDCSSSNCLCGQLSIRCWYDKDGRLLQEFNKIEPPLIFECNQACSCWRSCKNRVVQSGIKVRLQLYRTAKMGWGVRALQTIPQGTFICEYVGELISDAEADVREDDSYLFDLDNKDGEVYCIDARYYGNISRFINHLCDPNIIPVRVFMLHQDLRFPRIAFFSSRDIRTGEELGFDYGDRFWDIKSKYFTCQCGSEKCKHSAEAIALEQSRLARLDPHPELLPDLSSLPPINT
UniProt P83917: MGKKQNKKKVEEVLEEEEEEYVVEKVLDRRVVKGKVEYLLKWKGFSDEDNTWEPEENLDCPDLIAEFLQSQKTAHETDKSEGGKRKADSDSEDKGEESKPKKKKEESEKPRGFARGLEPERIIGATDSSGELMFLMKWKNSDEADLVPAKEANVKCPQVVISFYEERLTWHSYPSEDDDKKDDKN

HP1β (encoded by Cbx1) (from UniProt P83917 1-185)
binding: binds

From publication PMC3682905
